The match of structure and compound is tentative.
Tests used:
[1] = biological target: His-tagged KRAS G12D protein (Homo sapiens (Human), UniProt P01116, G12D); assay: KRAS G12D TR-FRET Assay; settings: read-out: KRAS G12D Binding IC50; tested form: TFA
Experimental: Compounds of interest were prepared in a dose-response titration in DMSO, and 80 nL were added via Labcyte Echo to each well of a 384-well plate (Perkin Elmer 6008280). The His-tagged KRAS G12D protein (Amgen) was diluted to 20 nM in Assay Buffer (20 mM HEPES, pH 7.4, 10 mM MgCl2, 50 mM NaCl, 0.1% BSA, 0.01% Tween-20, 10 μM GDP) and 2 μL was added to the appropriate wells of the 384-well plate. The plate was incubated for 30 minutes at room temperature. Biotinylated KRPep-2d substrate (Amgen) was diluted to 20 nM in Assay Buffer and 2 μL was added to all wells and incubated for 1 hour at room temperature. Detection Reagent (0.4 nM LANCE Eu-W1024 Anti-6×His (Perkin Elmer AD0401), 5 nM streptavidin-d2 (Cisbio 610SADLA)) was prepared in Assay Buffer, then 4 μL was added to the plate and incubated for 1 hour at room temperature. Plates were read using PerkinElmer EnVision (ex: 320 nm, em1: 665 nm, em2: 615 nm) and em1/em2 data was used to generate curve fits using a 4-parameter logistic model to calculate IC50 values.

By UniProt entry, the sequences of proteins in these tests, tags left out. Chains listed by the source or under a name are the forms on record and can include a tag or linker. Residues count along the entry.
UniProt P01116, 1-164 with tags or gaps G12D limits assumed: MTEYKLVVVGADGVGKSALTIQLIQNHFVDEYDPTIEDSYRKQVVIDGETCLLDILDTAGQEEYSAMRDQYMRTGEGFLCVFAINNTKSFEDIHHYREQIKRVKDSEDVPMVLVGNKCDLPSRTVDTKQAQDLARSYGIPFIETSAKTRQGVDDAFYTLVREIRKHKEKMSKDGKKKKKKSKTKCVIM
UniProt P01116, 1-164 with tags or gaps C118A/G12D limits assumed: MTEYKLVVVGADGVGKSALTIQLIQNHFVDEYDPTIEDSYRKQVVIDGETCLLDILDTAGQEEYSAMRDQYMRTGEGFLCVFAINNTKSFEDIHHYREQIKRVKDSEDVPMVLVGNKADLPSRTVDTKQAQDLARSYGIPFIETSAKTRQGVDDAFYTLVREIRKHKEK

[2] = biological target: GDP-bound KRAS protein (aa 1-169), containing both G12D and C118A amino acid substitutions (Homo sapiens (Human), UniProt P01116, C118A/G12D); assay: KRAS G12D Coupled Nucleotide Exchange Assay; type: biochemical; settings: read-out: KRAS G12D Coupled Exchange IC50; tested form: TFA
Experimental: KRAS G12D Coupled Nucleotide Exchange Assay
Following compound pre-incubation, purified SOS protein (aa 564-1049) and GTP (Roche 10106399001) were added to the assay wells and incubated for an additional 30 min. To determine the extent of inhibition of SOS-mediated nucleotide exchange, purified GST-tagged cRAF (aa 1-149), nickel chelate AlphaLISA acceptor beads (PerkinElmer AL108R), and AlphaScreen glutathione donor beads (PerkinElmer 6765302) were added to the assay wells and incubated for 10 minutes. The assay plates were then read on a PerkinElmer EnVision Multilabel Reader, using AlphaScreen® technology, and data were analyzed using a 4-parameter logistic model to calculate IC50 values.

Compound: Cc1cc2[nH]ncc2c2c1CCCCC(=O)N[C@@H]1CCCN(C1)c1nc(OC[C@@]34CCCN3C[C@H](F)C4)nc3c(F)c-2ncc13 [Example 48, (17R)-30-fluoro-24-(((2R,7aS)-2-fluorotetrahydro-1H-pyrrolo[1,2-a]pyrrol-7a(5H)-yl)methoxy)-9-methyl-5,6,16,21,23,25,29-heptaazahexacyclo[24.3.1.1˜17,21˜.0˜2,10˜.0˜3,7˜.0˜22,27˜]hentriaconta-1(30),2,4,7,9,22,24,26,28-nonaen-15-one 2,2,2-trifluoroacetate]
- IC50 [1]: 349 nM
- IC50 [2]: 368 nM

From patent US20240294551A1 (AMGEN INC., priority 2022, published 2024)
